Assay results as given in PubChem BioAssay AID1671190 (National Center for Advancing Translational Sciences (NCATS), 2021).
Where “and” joins values, the source holds several entries; their conditions need not be identical. Identical values can stand only once. Screen size: about 580,000 compounds; about 6,100 (1.1%) were called active. This list was built around the results that the source calls inconclusive (neither active nor inactive); the mix of calls is not that of the screen. The call rests on the fitted dose curve; in most records, active means well fitted inhibition curve with a large enough effect; inconclusive means small, poorly fitted or top-dose-only effect, or another doubt; inactive means no such curve, though single readings can be large or run the other way. Potencies of inconclusive entries are doubtful fits and often do not repeat.

Protein sequences, listed by entry. Tags and fused reporters are not part of them. Lines headed by an entry give the natural chain unless they say otherwise; changes in a name come on top.
UniProt P18054: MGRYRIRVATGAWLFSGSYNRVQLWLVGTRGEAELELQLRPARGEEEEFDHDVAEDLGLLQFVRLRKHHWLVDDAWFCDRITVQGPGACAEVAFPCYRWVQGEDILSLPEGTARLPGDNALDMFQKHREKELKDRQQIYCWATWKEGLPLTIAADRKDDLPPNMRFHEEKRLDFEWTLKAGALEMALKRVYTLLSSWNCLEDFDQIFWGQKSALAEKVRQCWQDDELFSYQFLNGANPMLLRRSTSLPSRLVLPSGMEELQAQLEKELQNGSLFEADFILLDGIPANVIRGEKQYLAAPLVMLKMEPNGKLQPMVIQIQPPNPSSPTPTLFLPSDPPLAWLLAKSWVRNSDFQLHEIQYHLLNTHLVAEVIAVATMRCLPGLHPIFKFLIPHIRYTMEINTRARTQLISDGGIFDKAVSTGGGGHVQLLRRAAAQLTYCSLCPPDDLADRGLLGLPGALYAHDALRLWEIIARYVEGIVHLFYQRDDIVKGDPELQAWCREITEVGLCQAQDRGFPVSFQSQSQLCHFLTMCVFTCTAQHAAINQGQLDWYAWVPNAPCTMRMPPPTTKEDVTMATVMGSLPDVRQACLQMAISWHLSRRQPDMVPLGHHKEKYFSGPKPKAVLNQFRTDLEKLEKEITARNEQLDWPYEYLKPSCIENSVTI

Target: Polyunsaturated fatty acid lipoxygenase ALOX12 (Homo sapiens) (UniProt P18054)
Test: Primary qHTS assay for inhibitors of human arachidonate 12S-lipoxygenase (ALOX12): Round 2
Conditions: purified 12hLO, xylenol orange hydroperoxide absorbance; activity change, negative = inhibition: at 108 µM (top of the series) unless noted
Procedure, shortened: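 Purified human 12hLO (150 nM final) in 25 mM Hepes, 0.01% Triton X-100, pH 7.0 was preincubated 15 min at room temperature with compound. Then 40 uM arachidonic acid was added, 30 min. Hydroperoxide was read by Fe-XO absorbance ratio 573/405 nm.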
On the % scale 0 is the no-effect control and ±100 the full control effect; potency means the concentration at half of the fitted maximal effect.

SMILES | Potency | activity change, negative = inhibition
CC(=O)Nc1ccc(S(=O)(=O)NCCSCc2c(Cl)cccc2Cl)cc1 | inactive | 
CN1CCN(C(=O)c2ccccc2NC(=O)C(C)(C)C)CC1 | inconclusive: 0.251 µM [inhibitor, full curve, poor fit] | 
O=C(CSCc1ccc(F)cc1)N1CCN(c2ccc(Cl)cc2)CC1 | inconclusive: 158 µM [inhibitor, partial curve, poor fit] | 
O=C(c1ccccc1)c1ccc2nc(-c3ccco3)c(-c3ccco3)nc2c1 | inconclusive: 14.1 µM [inhibitor, partial curve, poor fit] | 
CCNC(=O)N[C@@H]1C=C[C@@H](c2c(C)nn(-c3ccc(C(F)(F)F)cc3)c2C)C1 | inconclusive: 35.5 µM [inhibitor, full curve] | 
O=C(O)C1Cc2ccccc2CN1C(=O)COc1ccc(Cl)cc1Cl (configuration not stated) | inconclusive: 7.94 µM [inhibitor, partial curve, poor fit] | 
O=C(c1cccs1)N1CCCC(c2nc3c(nnn3Cc3ccccc3Cl)c(=O)[nH]2)C1 (configuration not stated) | inconclusive: 126 µM [inhibitor, single point] | 
Cc1ccc(C)n1Cc1ccccc1Cl | inactive | 
COCCn1ncc(N2CCC(NC(=O)c3ccccc3OC)CC2)cc1=O | inactive | 
CC(C)(C)c1ccc(COn2c(=O)c(-c3ccco3)[n+]([O-])c3ccccc32)cc1 | inconclusive: 56.2 µM [inhibitor, partial curve, poor fit] | 
Clc1ccc(CN2CCC(CNc3ncnc4onc(-c5ccc(Cl)cc5)c34)CC2)cc1 | inconclusive: 50.1 µM [inhibitor, partial curve] | 
COC(=O)C1=CN(C(C)C)C=C(C(=O)OC)C1c1cccs1 | inconclusive: 44.7 µM [inhibitor, partial curve, poor fit] | 
COc1ccc(-c2noc(CCC(=O)N3CCN(c4cccc(C)c4)CC3)n2)cc1 | inconclusive: 100 µM [inhibitor, single point] | 
Cc1cnc2c(S(=O)(=O)NC3CCN(S(C)(=O)=O)CC3)cccc2c1 | inconclusive: 50.1 µM [inhibitor, single point] | 
CCCOc1c(Br)cc(/C=C/C(=O)c2ccc(O)c(OC)c2)cc1OC | inconclusive: 44.7 µM [inhibitor, partial curve, poor fit] | 
CN1CCN(C(=O)CCN2C(=O)/C(=C\c3ccc(Cl)cc3Cl)SC2=S)CC1 | inconclusive: 44.7 µM [inhibitor, partial curve, poor fit] | 
CC(=O)N(C)Cc1ccc(C(=O)CSc2nnc(C3CC3)n2C2CC2)cc1 | inconclusive: 112 µM [inhibitor, single point] | 
NC(=O)/C(=C\c1ccco1)NC(=O)c1ccc(Br)o1 | inconclusive: 28.2 µM [inhibitor, partial curve, poor fit] | 
Cc1ccc(S(=O)(=O)Oc2ccc(/C=N/NC(=O)c3c(Cl)cnn3C)cc2)cc1 | inconclusive: 7.08 µM [inhibitor, full curve, poor fit] | 
CN(Cc1cccnc1)c1nc2c(c(=O)[nH]1)CCN(Cc1cccc(F)c1F)CC2 | inactive | 
Cc1cnc(NC(=O)CC(C)c2ccccc2)s1 (configuration not stated) | inconclusive: 56.2 µM [inhibitor, partial curve, poor fit] | 

SMILES | Potency | activity change, negative = inhibition
CN(C)c1cc(=O)c2ccnc(-c3ccc(F)c(Cl)c3)c2o1 | inactive | 
COc1ccc(CC(=O)N2CCc3nc(C4CC4)nc(-c4ccc(Cl)cc4)c3C2)cc1 | inconclusive: 89.1 µM [inhibitor, single point] | 
CCc1c(C)nc(SCc2nc(-c3ccccc3)no2)[nH]c1=O | inconclusive: 100 µM [inhibitor, partial curve, poor fit] | 
Cn1cccc1C(=O)N1CCC[C@@]2(CCN(C(=O)Nc3cccc(C#N)c3)C2)C1 | inconclusive: 28.2 µM [inhibitor, single point] | 
CN(C)c1ccc(NC(=O)c2cc3cc(F)ccc3[nH]2)cc1 | inconclusive: 79.4 µM [inhibitor, partial curve, poor fit] | 
COc1cc(OC)c(OC)cc1/C=C/c1nc2cc3ccccc3cc2c(=O)n1-c1ccc(F)c(Cl)c1 | inconclusive: 112 µM [inhibitor, partial curve, poor fit] | 
CCOc1ccc(CNCc2ccco2)cc1Cl | inconclusive: 56.2 µM [inhibitor, partial curve, poor fit] | 
COc1cc(-c2cc(C(=O)Nc3nc4ccccc4s3)c3ccccc3n2)cc(OC)c1OC | inactive | 
COc1cc(/C(C)=N/NC(=O)c2cccc(S(=O)(=O)N3CCCC3)c2)cc(OC)c1OC | inconclusive: 2 µM [inhibitor, partial curve, poor fit] | 
O=C(CSc1nnnn1-c1cccc2c1CCCC2)N1CCOCC1 | inactive | 
COc1ccc(-c2ccc3[nH]c4c(c3c2)CCN2C(=O)[C@@H]([C@H](C)O)[C@@H](N(C)C(=O)Nc3ccccc3)C[C@@H]42)cc1 | inconclusive: 100 µM [inhibitor, single point] | 
Nc1nc(C(=O)N2CCOCC2)nn1S(=O)(=O)c1ccc(Cl)cc1 | inconclusive: 39.8 µM [inhibitor, partial curve, poor fit] | 
Cn1c(NCC(O)c2ccccc2)nc2c1c(=O)n(Cc1ccc(Cl)c(Cl)c1)c(=O)n2C (configuration not stated) | inconclusive: 89.1 µM [inhibitor, single point] | 
COc1cc(Br)c(C2CC(=O)Nc3cc4c(cc32)OCO4)cc1OC (configuration not stated) | inactive | 
CCCOc1cc(S(=O)(=O)N2CCN(CCO)CC2)ccc1Br | inconclusive: 28.2 µM [inhibitor, single point] | 
CN(Cc1ccccc1)c1nc2c(c(=O)[nH]c(=O)n2C)n1CCSc1nc2ccccc2[nH]1 | inconclusive: 50.1 µM [inhibitor, partial curve, poor fit] | 
CCc1ccc(C(=O)COC(=O)c2cccs2)cc1 | inconclusive: 31.6 µM [inhibitor, single point] | 
C=CCn1c(SCC(=O)c2ccc(CNC(C)=O)o2)nc2ccccc2c1=O | inconclusive: 25.1 µM [inhibitor, single point] | 
CCS(=O)(=O)N1CCc2cc(C(=O)CSc3cccc(OC)c3)ccc21 | inactive | 
O=C(COc1ccccc1)Nc1cccc(-c2nn[nH]n2)c1 | inconclusive: 20 µM [inhibitor, full curve] | 
COc1ccc(-c2cc(N3CCN(C(=O)c4cccc(Br)c4)CC3)n[nH]2)cc1 | inactive | 

SMILES | Potency | activity change, negative = inhibition
CCCCOc1c(Br)cc(/C=C2\N=C(C)OC2=O)cc1OCC |  | inconclusive: -42% [inhibitor]
N#CC(C#N)=C(/C=C/c1ccc(OC(F)F)cc1)C1CC1 | inconclusive: 11.2 µM [inhibitor, full curve, poor fit] | 
CCC(C)[C@H](NC(=O)NC1CCCc2ccccc21)C(=O)OC (some centres not stated) | inconclusive: 100 µM [inhibitor, partial curve, poor fit] | 
O=CNC(=O)c1ccccc1C(=O)O | inconclusive: 44.7 µM [inhibitor, partial curve, poor fit] | 
Cc1cccc(CC(=O)N2CCCCC2c2noc(COc3ccc(F)cc3)n2)c1 (configuration not stated) | inactive | 
Cc1ccc2c(c1)c(/C=C/c1cc[n+](C)cc1)c(C)n2C | inconclusive: 50.1 µM [inhibitor, partial curve, poor fit] | 
c1ccc(CCNc2nc3ccccc3s2)cc1 | inactive | 
COc1ccc2c(CN3CCN(c4ccccc4F)CC3)cc(=O)oc2c1 | inconclusive: 10 µM [inhibitor, full curve] | 
Cc1ccc(S(=O)(=O)N2CCCCC2)cc1NS(=O)(=O)c1cccc(C(=O)O)c1 | inconclusive: 63.1 µM [inhibitor, partial curve, poor fit] and inconclusive: 708 nM [inhibitor, full curve, poor fit] | 
O=c1c(-c2ccc(O)cc2O)coc2cc(O)cc(O)c12 | inactive | 
CCN[C@H]1C[C@H](C)S(=O)(=O)c2sc(S(N)(=O)=O)cc21 | inconclusive: 61.1 µM [inhibitor, single point] | 
Cc1ccc(NC(=S)NCC2CCCO2)cc1C (configuration not stated) | inconclusive: 39.8 µM [inhibitor, partial curve, poor fit] | 
CCc1cc(OCCOCCN(C)C)ccc1Cl | inconclusive: 1.78 µM [inhibitor, full curve, poor fit] | 
O=C(CCC1N=C2c3ccccc3N=C(SCc3cccc(Cl)c3)N2C1=O)N1CCN(c2ccccc2)CC1 (configuration not stated) | inactive | 
O=C1Nc2ccccc2C(O)(C(=O)NCc2ccc3c(c2)OCO3)N1c1ccc(Cl)c(Cl)c1 (configuration not stated) | inconclusive: 79.4 µM [inhibitor, partial curve, poor fit] | 
CNC(=O)CSCCn1c(SCC(=O)NC)nc2ccccc2c1=O | inconclusive: 63.1 µM [inhibitor, partial curve, poor fit] | 
Cc1ccc(-c2cc(C(=O)OC(C)C(=O)NC(=O)NC3CCCC3)c3ccccc3n2)o1 (configuration not stated) | active: 3.98 µM | 
O=C(C1CCCCC1)N1C[C@@H](n2cc(-c3ccc(F)cc3)nn2)[C@H](O)C[C@@H]1c1ccccc1 | inconclusive: 112 µM [inhibitor, single point] | 
O=[N+]([O-])c1cccc2ccc(/C=C/c3ccccc3)nc12 | inconclusive: 17.8 µM [inhibitor, full curve, poor fit] | 
CC1CCN(CCCCOc2ccc([N+](=O)[O-])cc2)CC1 | inconclusive: 2.51 µM [inhibitor, full curve, poor fit] | 
